# Measurements taken from PubChem BioAssay AID485314 (National Center for Advancing Translational Sciences (NCATS), 2010).
# Among all 340,000 compounds or so, about 4,500 (1.3%) were called active. The shares of active, inactive and inconclusive entries below differ from those in the screen. The call rests on the fitted dose curve; in most records, active means well fitted inhibition curve with a large enough effect; inconclusive means small, poorly fitted or top-dose-only effect, or another doubt; inactive means no such curve, though single readings can be large or run the other way. Potencies beside an inconclusive call are fits to weak or partial responses and may not hold up. Some structures have more than one record in an assay (separate samples or runs), and their calls can disagree.
# Target: DNA polymerase beta (Homo sapiens) (UniProt P06746)
# Test: qHTS Assay for Inhibitors of DNA Polymerase Beta
# Conditions: Pol beta primer extension/strand displacement, fluorescence kinetic; activity change, negative = inhibition: at 114 µM (top of the series)
# Outline: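 Homogeneous kinetic assay of primer extension and strand displacement by 10 nM Pol beta, preincubated 15 min at room temperature with compound before 50 nM substrate (final) was added. Read at 0 and 10 min; four-parameter Hill fit.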
# On the % scale 0 is the no-effect control and ±100 the full control effect; potency means the concentration at half of the fitted maximal effect.
Structure (SMILES),"activity change, negative = inhibition",Potency
COc1ccc(S(=O)(=O)NCC(=O)N(CC(=O)NCC2CCCO2)Cc2ccc(F)cc2)cc1 (stereo not given),inactive: 10.5%,–
CCN(CC)S(=O)(=O)c1cc(-c2nnc(-c3ccc(Br)cc3)o2)ccc1Br,–,"inconclusive: 79.4 µM [inhibitor, single point]"
O=C(CSc1ccc(-c2ccccn2)nn1)Nc1ccccc1,–,"inconclusive: 0.355 µM [inhibitor, full curve, poor fit]"
O=C(C1=C(O)C(=O)N(CC2CCCO2)C1c1ccc(Cl)cc1Cl)c1ccco1 (stereo not given),inactive: 1.63%,–
CCN1CCN(Cc2ccc(NC(=O)c3ccc(C)c(/C=C/c4cnc(Nc5cc(N6CCNCC6)nc(C)n5)cn4)c3)cc2C(F)(F)F)CC1,inactive: 11.1%,–
CCc1ccc(CNC(=O)C2CCCN(c3nnc(C)c4c(C)n(-c5ccccc5)nc34)C2)cc1 (stereo not given),–,active: 50.1 µM
Cc1ccc2cc3c(N)c4c(C)ccc(C)c4nc3nc2c1,–,active: 25.1 µM
COc1ccccc1NC(=O)C1=C(C)Nc2nc(SC)nn2C1c1ccccc1Cl (stereo not given),inactive: -3.6%,–
O=S(=O)(c1ccc(Cl)c(S(=O)(=O)N2CCCC2)c1)N1CCCC1,–,"inconclusive: 0.631 µM [inhibitor, full curve, poor fit]"
CCOC(=O)c1c(NC(=O)c2ccc(OCC)c(Br)c2)sc2c1CCCC2,inactive: 34.8%,–
O=C(/C=C/c1ccco1)N(Cc1cccc(Br)c1)C1CCS(=O)(=O)C1 (stereo not given),inconclusive: -50% [inhibitor],–
CCc1nc2ccccc2n(CCOCCOCCn2c(=O)c(CC)nc3ccccc32)c1=O,–,active: 35.5 µM
COc1ccccc1NC(=O)c1cc(Br)ccc1Cl,–,"inconclusive: 31.6 µM [inhibitor, partial curve, poor fit]"
Cc1c(N=C2C=C(Br)C(=O)C(Br)=C2)c(=O)n(-c2ccccc2)n1C,–,active: 39.8 µM
Oc1ccc(/C=N/n2c(C3CCCCC3)n[nH]c2=S)c(O)c1,–,"inconclusive: 1.58 µM [inhibitor, full curve, poor fit]"
Cc1ccnc(NC(=O)CCS(=O)(=O)c2ccccc2)c1,–,active: 22.4 µM
Cc1ccc(-n2c(-c3ccc(Br)cc3)c[n+]3c2CCc2ccc4cccnc4c2-3)cc1,–,active: 50.1 µM
Cc1c(C(=O)OC2CCCCC2)[nH]c2c1C(=O)CC(c1ccc(F)cc1)C2 (stereo not given),–,"inconclusive: 0.224 µM [inhibitor, full curve, poor fit]"
COc1ccc(N2CC(C(=O)N[C@@H](C)C(=O)N[C@H](CO)c3ccccc3)CC2=O)cc1 (stereo not given in full),–,"inconclusive: 100 µM [inhibitor, partial curve]"
Cc1nn(C(C)C(=O)c2cccc(Cl)c2)c(C)c1[N+](=O)[O-] (stereo not given),–,"inconclusive: 2.51 µM [inhibitor, partial curve, poor fit]"

# Ordered by SMILES length (descending): some entries from above
Structure (SMILES),"activity change, negative = inhibition",Potency
O=C(C1=C(O)C(=O)N(CC2CCCO2)C1c1ccc(Cl)cc1Cl)c1ccco1 (stereo not given),inactive: 1.63%,–
Cc1c(C(=O)OC2CCCCC2)[nH]c2c1C(=O)CC(c1ccc(F)cc1)C2 (stereo not given),–,"inconclusive: 0.224 µM [inhibitor, full curve, poor fit]"
Oc1ccc(/C=N/n2c(C3CCCCC3)n[nH]c2=S)c(O)c1,–,"inconclusive: 1.58 µM [inhibitor, full curve, poor fit]"
